These are yes or no findings as the source states them, for the method shown. Some entries that bind do so weakly or less than the wild type. Values belong to the binder of their own block, whether it stands above or below them.
Experiments:
Mis4 (S. pombe) = Mis4 (S. pombe) (UniProt Q09725); assay: two-hybrid; Gal4 system (BD/Clontech); bait in pGBK-T7 (Y2HGold), prey in pGAD-T7 (Y187), mated diploids checked on SD-Trp-Leu-His-Ade plates
Pds5 (S. pombe) = molecular target: T1, Pds5 (S. pombe) (UniProt Q9HFF5); assay: as above
T1 sequence: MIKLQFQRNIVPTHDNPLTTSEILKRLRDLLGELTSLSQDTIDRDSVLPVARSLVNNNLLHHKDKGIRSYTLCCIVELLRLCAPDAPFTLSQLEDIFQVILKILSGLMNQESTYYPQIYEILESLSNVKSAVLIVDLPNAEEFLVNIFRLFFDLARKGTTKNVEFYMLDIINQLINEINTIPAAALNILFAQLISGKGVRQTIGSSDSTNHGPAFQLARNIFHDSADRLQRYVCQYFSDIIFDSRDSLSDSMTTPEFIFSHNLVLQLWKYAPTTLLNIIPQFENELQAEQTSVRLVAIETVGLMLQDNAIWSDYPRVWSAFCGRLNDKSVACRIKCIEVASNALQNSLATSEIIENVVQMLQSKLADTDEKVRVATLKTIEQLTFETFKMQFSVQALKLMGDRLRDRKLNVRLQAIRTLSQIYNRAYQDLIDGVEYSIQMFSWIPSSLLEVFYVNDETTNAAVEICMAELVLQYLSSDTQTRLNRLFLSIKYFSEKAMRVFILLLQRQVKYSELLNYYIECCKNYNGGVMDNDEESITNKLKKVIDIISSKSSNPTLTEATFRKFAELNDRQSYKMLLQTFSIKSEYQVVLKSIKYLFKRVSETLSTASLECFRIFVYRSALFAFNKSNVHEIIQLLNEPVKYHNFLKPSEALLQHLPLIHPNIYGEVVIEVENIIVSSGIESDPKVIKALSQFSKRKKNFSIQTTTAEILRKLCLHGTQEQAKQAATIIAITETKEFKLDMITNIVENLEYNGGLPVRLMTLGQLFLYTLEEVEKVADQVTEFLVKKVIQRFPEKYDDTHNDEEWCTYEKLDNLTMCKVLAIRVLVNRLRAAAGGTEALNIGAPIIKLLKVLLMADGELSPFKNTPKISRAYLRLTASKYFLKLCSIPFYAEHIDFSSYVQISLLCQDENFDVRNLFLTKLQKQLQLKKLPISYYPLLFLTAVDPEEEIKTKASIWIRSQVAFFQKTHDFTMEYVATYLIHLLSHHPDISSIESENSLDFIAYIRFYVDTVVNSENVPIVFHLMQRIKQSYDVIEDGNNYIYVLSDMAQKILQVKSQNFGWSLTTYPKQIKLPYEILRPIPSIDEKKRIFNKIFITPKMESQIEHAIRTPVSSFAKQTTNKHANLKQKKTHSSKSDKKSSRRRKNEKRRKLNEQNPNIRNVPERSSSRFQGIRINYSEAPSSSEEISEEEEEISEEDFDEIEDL

Protein sequences, listed by entry. Tags and fused reporters are not part of them.
UniProt Q09725: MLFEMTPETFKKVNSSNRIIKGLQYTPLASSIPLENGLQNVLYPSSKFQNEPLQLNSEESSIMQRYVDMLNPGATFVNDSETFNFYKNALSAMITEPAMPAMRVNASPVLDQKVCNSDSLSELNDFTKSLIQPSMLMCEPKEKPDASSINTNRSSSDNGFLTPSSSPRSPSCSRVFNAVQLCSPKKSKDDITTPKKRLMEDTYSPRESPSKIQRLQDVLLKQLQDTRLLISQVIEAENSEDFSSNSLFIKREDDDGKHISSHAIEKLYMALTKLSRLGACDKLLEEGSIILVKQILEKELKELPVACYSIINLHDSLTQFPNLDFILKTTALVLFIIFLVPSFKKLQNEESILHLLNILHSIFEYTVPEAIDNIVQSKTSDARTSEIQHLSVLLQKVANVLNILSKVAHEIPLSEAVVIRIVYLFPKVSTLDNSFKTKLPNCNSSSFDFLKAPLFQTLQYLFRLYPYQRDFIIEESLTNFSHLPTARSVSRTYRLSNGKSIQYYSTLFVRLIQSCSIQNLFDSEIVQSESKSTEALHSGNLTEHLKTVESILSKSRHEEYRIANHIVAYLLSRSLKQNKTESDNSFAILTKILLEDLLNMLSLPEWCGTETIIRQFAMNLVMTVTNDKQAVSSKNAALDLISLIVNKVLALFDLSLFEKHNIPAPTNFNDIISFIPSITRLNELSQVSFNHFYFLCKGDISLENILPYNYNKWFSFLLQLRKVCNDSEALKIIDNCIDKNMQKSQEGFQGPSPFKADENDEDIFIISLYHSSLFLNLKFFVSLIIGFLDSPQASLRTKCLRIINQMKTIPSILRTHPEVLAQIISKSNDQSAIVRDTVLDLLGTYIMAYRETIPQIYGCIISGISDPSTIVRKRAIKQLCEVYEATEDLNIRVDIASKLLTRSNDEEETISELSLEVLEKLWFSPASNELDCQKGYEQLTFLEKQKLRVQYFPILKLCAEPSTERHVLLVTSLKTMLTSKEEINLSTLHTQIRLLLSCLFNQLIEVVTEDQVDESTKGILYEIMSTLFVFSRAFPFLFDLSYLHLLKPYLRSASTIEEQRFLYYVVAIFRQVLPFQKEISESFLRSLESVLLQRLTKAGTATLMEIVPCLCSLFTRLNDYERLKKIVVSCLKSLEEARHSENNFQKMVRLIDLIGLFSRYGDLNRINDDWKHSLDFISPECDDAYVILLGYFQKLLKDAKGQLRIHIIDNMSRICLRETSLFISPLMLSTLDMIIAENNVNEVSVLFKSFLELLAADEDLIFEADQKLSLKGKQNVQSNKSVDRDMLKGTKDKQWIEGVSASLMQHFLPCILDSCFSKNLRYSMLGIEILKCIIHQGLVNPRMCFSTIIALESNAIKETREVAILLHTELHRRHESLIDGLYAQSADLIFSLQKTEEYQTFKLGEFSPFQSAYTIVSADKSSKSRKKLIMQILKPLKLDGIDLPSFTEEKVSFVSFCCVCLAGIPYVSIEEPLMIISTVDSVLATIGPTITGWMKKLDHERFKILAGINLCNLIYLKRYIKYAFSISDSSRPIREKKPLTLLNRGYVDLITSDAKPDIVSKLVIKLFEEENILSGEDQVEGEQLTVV

binding (Mis4 (S. pombe)): binds weakly | binding (Pds5 (S. pombe)): binds
B1: N-terminal fragment of Rec8 (1–245 a.a.) (domain or fragment, UniProt P36626 1-245)
chain: MFYNQDVLTKEKGGMGVIWLAATLGSKHSLRKLHKKDIMSVDIDEACDFVAFSPEPLALRLSSNLMIGVTRVWAHQYSFFHSQVSTLHLRVRKELDHFTSKPFKNIDIQNEQTNPKQLLLAEDPAFIPEVSLYDAFNLPSVDLHVDMSSFTQPKENPNISVLETLPDSTSYLINTSQNYSLRNNVSSFVYEDSRAFSTEEPLDFEFDENGDIQELTKGTINSDPSLQAASQHSNLGSVQREYNSE

binding (Pds5 (S. pombe)): binds
B2: Eso1 (protein, UniProt O42917 1-872)
chain: MELGKSKFSWKDLQYCDKAGTQNSPLRVVAHIDQDAFYAQVESVRLGLDHSVPLAVQQWQGLIAVNYAARAANISRHETVTEAKKKCPELCTAHVKTWKAGESEAKYHENPNPNYYKTCLDPYRHESVKILNIIKKHAPVVKKASIDECFIELTSDVKRIVLEEYPYLKIPSEDSNVALPQAPVLLWPAEFGMVIEEEVVDRTKEDYERDWDDVFLFYAAKIVKEIRDDIYLQLKYTCSAGVSFNPMLSKLVSSRNKPNKQTILTKNAIQDYLVSLKITDIRMLGGKFGEEIINLLGTDSIKDVWNMSMDFLIDKLGQTNGPLVWNLCHGIDNTEITTQVQIKSMLSAKNFSQQKVKSEEDAINWFQVFASDLRSRFLELEGMRRPKTICLTVVSRFLRKSRSSQIPMNVDISTQFIVEATSKLLRQLQQEFDVYPISNLSISFQNIIEVDRNSRGIEGFLKKSNDEIYMSTSVSPSIEGRAKLLNENMRENNSFELSSEKDIKSPKRLKRGKGKGIFDMLQQTAVSKPTENSADETYTCEECEQKITLSERNEHEDYHIALSISRKERYNNLVPPSHDKPKQVKPKTYGRKTGSKHYAPLSDETNNKRAFLDAFLGNGGNLTPNWKKQTPKAISNSSDNMTQLHLDLANSTVTCSECSMEYNSTSEEDILLHSRFHSRVLGGVTVSFQCSPIYRVNYGLSSDCIYSINSESSLIDQRKAEEALSFVNNELSSEPIETIGVDKYTTFLFISDKKCVGLLLAERISSAYIVDELELNNNNSTSSAVYIKNENLRKGFVLGISRIWVSASRRKQGIASLLLDNALKKFIYGYVISPAEVAFSQPSESGKQFIISWHRSRNNGSSKSLRYAVYES

Source: publication PMC10917647
